PubChem BioAssay AID1224826, NIAID | 2016
Here is a random part of about 17,000 reagents. About 1,110 of all reagents (6.6%) were called active. 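Active means lowered or raised reporter signal; replicate intensities are raw and not normalised per plate.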 Unmarked entries are inactive.

Screen: 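Genes that change LPS-induced Tnf promoter activity in mouse macrophages when knocked down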 (primary screen)
Cell system: RAW264.7 G9 macrophages from mouse bearing reporters for p65 (GFP) and the Tnf promoter (mCherry)
Reagents: siRNA pool against mouse genes, 100 nM
Timing: 16 h of LPS stimulation, after 2 days of siRNA transfection
Challenge: bacterial lipopolysaccharide (Salmonella minnesota R595), 10 ng/ml
Measurement: 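Imaged Tnf reporter mCherry in nuclei, minus background, normalised per plate to the median and expressed as robust z-scores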
Reading the numbers: Tnf reporter robust z-score: higher = stronger Tnf promoter reporter signal after LPS; Tnf reporter intensity: higher = stronger Tnf promoter reporter signal
Hit rule: 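Called active when robust z-score is at most -1.3, matching the median of the Tlr4 knock-down control, or over 3; control wells and wells with under 50 cells never active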
Calls: active = Tnf reporter clearly lowered or raised; inactive = no clear change in Tnf reporter

no.	gene symbol	PubChem SID	Tnf reporter robust z-score	fewer than 50 cells in well	Tnf reporter intensity, replicate 1	Tnf reporter intensity, replicate 2
1	Arhgap33 (Rho GTPase activating protein 33)	SID315479051	2.37	enough cells in well	175	183
2	Fam234a (family with sequence similarity 234, member A)	SID315476550	-0.62	enough cells in well	181	130
3	Coro2a (coronin, actin binding protein 2A)	SID315476630	-0.38	enough cells in well	171	211
4	Gnaz (guanine nucleotide binding protein, alpha z subunit)	SID315466951	-0.76	enough cells in well	155	227
5	Fam187b (family with sequence similarity 187, member B)	SID315475307	-0.73	enough cells in well	151	62.3
6	Gfra2	SID315466887	0.77	enough cells in well	278	172
7	Ciapin1 (cytokine induced apoptosis inhibitor 1)	SID315476771		fewer than 50 cells per well; well left out of calls	176	115
8	Zfp629 (zinc finger protein 629)	SID315481367	-0.22	enough cells in well	144	198
9	Manba (mannosidase, beta A, lysosomal)	SID315476881	-0.18	enough cells in well	245	195
10	Rgs18 (regulator of G-protein signaling 18)	SID315472078	2.98	enough cells in well	240	273
11	Or10g1b (olfactory receptor family 10 subfamily G member 1B)	SID315479962	3.3 (active)	enough cells in well	380	256
12	Gtf2ird2 (GTF2I repeat domain containing 2)	SID315477033	2.14	enough cells in well	276	267
13	Atp2a2 (ATPase, Ca++ transporting, cardiac muscle, slow twitch 2)	SID315465550	-0.91	enough cells in well	96.6	108
14	Dao (D-amino acid oxidase)	SID315466262	1.43	enough cells in well	339	343
15	Mt3 (metallothionein 3)	SID315468005	-0.06	enough cells in well	312	156
16	Treh (trehalase (brush-border membrane glycoprotein))	SID315471925	0.73	enough cells in well	137	124
17	Or9s23 (olfactory receptor family 9 subfamily S member 23)	SID315480645	-1.19	enough cells in well	132	56
18	Kdsr (3-ketodihydrosphingosine reductase)	SID315474120	0.19	enough cells in well	315	212
19	Trim12a (tripartite motif-containing 12A)	SID315475361	-0.04	enough cells in well	116	56.3
20	E330018D03Rik (retired record)	SID315481284	-0.87	enough cells in well	135	46.9
21	Sf3b2 (splicing factor 3b, subunit 2)	SID315481071		fewer than 50 cells per well; well left out of calls	27.9	52.8
22	Tmem140 (transmembrane protein 140)	SID315473545	3.32 (active)	enough cells in well	460	190
23	Zfp426 (zinc finger protein 426)	SID315479216	1	enough cells in well	155	180
24	Ada (adenosine deaminase)	SID315465283		fewer than 50 cells per well; well left out of calls	167	171

An excerpt from above, reduced to “Tnf reporter intensity, replicate 1”.
Gfra2 [SID315466887] = 278
Ciapin1 (cytokine induced apoptosis inhibitor 1) [SID315476771] = 176
